Measurements as given in publication PMC12730314.
Construct, isoform or probe ends are uncertain for at least one entry.

Tested on: thrombin (human plasma) (Homo sapiens)
Assay: fluorescence anisotropy
Details: earlier work by the same group; Thrombin: TGK (192 mM Tris, 5 mM KH2PO4, 25 mM glycine hydrochloride; pH not stated) +/- 0.1% Tween 20, thrombin stock in 1 mg/mL BSA, 25 C, 40 min; native protein; folded or branched DNA

Sequence “AGTCCGTGGTAGGGCAGGTTGGGGTGACT [TR-labeled thrombin-binding 29mer]” has a Kd of 0.0456 µM.
